Results from PMC3814758, “The Geminin and Idas Coiled Coils Preferentially Form a Heterodimer That Inhibits Geminin Function in DNA Replication Licensing*” (The Journal of Biological Chemistry, 2013).
Results are given in words; binding and its absence hold for the method and conditions named. For part of these data: In cells and extracts the contact can be indirect. Some entries that bind do so weakly or less than the wild type. For part of these data: Tags and fused reporters may be left off the sequences shown.

T1: Cdt1 (115-353) (UniProt Q9H211)
T1 sequence: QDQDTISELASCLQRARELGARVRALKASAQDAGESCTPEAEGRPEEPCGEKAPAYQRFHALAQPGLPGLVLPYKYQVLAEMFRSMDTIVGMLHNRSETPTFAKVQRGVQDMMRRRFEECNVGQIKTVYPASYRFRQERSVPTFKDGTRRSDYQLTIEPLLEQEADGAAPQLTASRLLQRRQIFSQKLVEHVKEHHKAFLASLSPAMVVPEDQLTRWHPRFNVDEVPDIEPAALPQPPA


What was measured:
Cdt1 (115-353) = biological target: T1, Cdt1 (115-353); experiment: SEC; equimolar amounts of purified tCdt1 and purified tGeminin-tIdas mixed; elution profile; data not shown; both purified
[1] = biological target: full-length Geminin (Geminin-HA and Geminin-GFP) (human) (UniProt O75496); experiment: co-IP; U2OS cells transfected with Geminin-HA, Geminin-GFP and GFP, collected 24 h post-transfection; anti-HA (12CA5) immunoprecipitation, blots for GFP and HA
[2] = biological target: full-length Geminin (Geminin-HA and Geminin-GFP) (human) (UniProt O75496); experiment: co-IP; U2OS cells transfected with Geminin-HA, Geminin-GFP and Idas-GFP, collected 24 h post-transfection; anti-HA (12CA5) immunoprecipitation, blots for GFP and HA

Binder | binding (Cdt1 (115-353)) | binding [1] | binding [2]
tIdas-tGeminin heterodimer (complex, Idas (Multicilin), residues 173-245; Geminin, human, residues 82-160; Preformed heterodimer; also called tGeminin-tIdas; Idas-Geminin heterodimer; source: co-expression in Escherichia coli, purified (IMAC by the His tag on Idas, size exclusion chromatography); copies: 1 + 1) chain 1: PDVPPPEQYWKEVADQNQRALGDALVENNQLHVTLTQKQEEIASLKERNVQLKELASRTRHLASVLDKLMITQ chain 2: TQESFDLMIKENPSSQYWKEVAEKRRKALYEALKENEKLHKEIEQKDNEIARLKKENKELAEVAEHVQYMAELIERLNG | binds | – | –
full-length Geminin (Geminin-HA and Geminin-GFP) (protein, UniProt O75496 1-209) MNPSMKQKQEEIKENIKNSSVPRRTLKMIQPSASGSLVGRENELSAGLSKRKHRNDHLTSTTSSPGVIVPESSENKNLGGVTQESFDLMIKENPSSQYWKEVAEKRRKALYEALKENEKLHKEIEQKDNEIARLKKENKELAEVAEHVQYMAELIERLNGEPLDNFESLDNQEFDSEEETVEDSLVEDSEIGTCAEGTVSSSTDAKPCI | – | binds | no binding (condition: in the presence of Idas-GFP)
